B1: terminase subunit UL56 (protein, UniProt P16724 1-850)
chain: MEMNLLQKLCVVCSKCNEYAMELECLKYCDPNVLLAESTPFKRNAAAIVYLYRKIYPEVVAQNRTQSSLLTLYLEMLLKALHEDTALLDRALMAYSRQPDRAAFYRTVLRLDRCDRHHTVELQFTDNVRFSVSLATLNDIERFLCKMNYVYGILAPEAGLEVCAQLLELLRRLCGISPVARQEVYVEGTTCAQCYEELTIIPNQGRSLNKRLQGLLCNHIAVHRPSSQSDVNIQTVEQDLLDLTTRIPHLAGVLSALKSLFSSSSAYHSYIQEAEEALREYNLFTDIPERIYSLSDFTYWSRTSEVIVKRVGITIQQLNVYHQLCRALMNGISRHLYGEDVEDIFVLGEKALDGEERMFVGSVFAAPNRIIDLITSLSIQAFEDNPVFNKLHESNEMYTKIKHILEEIRRPLPDGTGGDGPEGEAIHLRGREAMSGTGTTLMTASNSSNSSTHSQRNNGGGGRARGGGKKVVGGGVNGQDGDGSENGLRVRNCDEHEALDLVDARSRIHNVTREVNVRKRAYLQKVSEVGYGKVIRCIKTQERLTSKLIDVNLVGPLCLDFISKLMNGFLYRSQYHQDQDVVDVGDQFTYDEHLYVVNNLIHKSLPVESLPLLGQQIYELCNGPLFTHCTDRYPLSHNVDMAYACDNAGVLPHVKDDLVKCAEGTVYPSEWMVVKYMGFFNFSDCQDLNVLQKEMWMHVRELVLSVALYNETFGKQLSIACLRDELHPDRDVILTYNKEWPLLLRHEGSLYKSKDLYLLLYRHLSRPDESGDVPTAPVAKPSTLTAAAAVSGVFREPDRPWLPSPYPSSSTAGVSRRVRATRKRPRRASSLLDLARDEHGIQDLVPGSLR
B2: capsid portal protein (UL104) (protein, UniProt P16735 1-697)
chain: MERNHWNEKSSGAKRSRERDLTLSTIRSILAADERLRIKASSYLGVGRGVDDEAVIDIFPTGQTMSFLRLLHGFLGTCRGQSMHQVLRDPCVLRKQLLYGVCKTLFDTITVRRVAEEWKLHAALFPYRALDEEDLEQYLLVWSASLRQSVQTGVLGALRDILYQYADNDDYGLYVDWCVTVGLVPLLDVKTKPSEAAERAQFVRAAVQRATETHPLAQDLLQANLALLLQVAERLGAVRVANAPEVRVFKKVRSERLEAQLRGKHIRLYVAAEPLAYERDKLLFTTPVAHLHEEILRYDGLCRHQKICQLLNTFPVKVVTASRHELNCKKLVEMMEQHDRGSDAKKSIMKFLLNVSDSKSRIGIEDSVESFLQDLTPSLVDQNRLLPARGPGGPGVVGPGGAVVGGPAGHVGLLPPPPGPAAPERDIRDLFKKQVIKCLEEQIQSQVDEIQDLRTLNQTWENRVRELRDLLTRYASRREDSMSLGARDAELYHLPVLEAVRKARDAAPFRPLAVEDNRLVANSFFSQFVPGTESLERFLTQLWENEYFRTFRLRRLVTHQGAEEAIVYSNYTVERVTLPYLCHILALGTLDPVPEAYLQLSFGEIVAAAYDDSKFCRYVELICSREKARRRQMSREAAGGVPERGTASSGGPGTLERSAPRRLITADEERRGPERVGRFRNGGPDDPRRAGGPYGFH

Protein sequences, listed by entry. Tags and fused reporters are not part of them.
UniProt P16794: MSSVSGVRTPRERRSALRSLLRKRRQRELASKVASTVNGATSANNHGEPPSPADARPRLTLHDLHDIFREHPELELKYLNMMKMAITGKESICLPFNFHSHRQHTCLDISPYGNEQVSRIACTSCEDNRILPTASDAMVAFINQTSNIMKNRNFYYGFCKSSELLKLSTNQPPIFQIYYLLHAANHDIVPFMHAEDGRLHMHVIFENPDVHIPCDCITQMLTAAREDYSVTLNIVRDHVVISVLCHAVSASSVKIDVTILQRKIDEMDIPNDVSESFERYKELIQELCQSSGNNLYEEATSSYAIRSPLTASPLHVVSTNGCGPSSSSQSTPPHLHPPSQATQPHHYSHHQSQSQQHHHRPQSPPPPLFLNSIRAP
UniProt P09695: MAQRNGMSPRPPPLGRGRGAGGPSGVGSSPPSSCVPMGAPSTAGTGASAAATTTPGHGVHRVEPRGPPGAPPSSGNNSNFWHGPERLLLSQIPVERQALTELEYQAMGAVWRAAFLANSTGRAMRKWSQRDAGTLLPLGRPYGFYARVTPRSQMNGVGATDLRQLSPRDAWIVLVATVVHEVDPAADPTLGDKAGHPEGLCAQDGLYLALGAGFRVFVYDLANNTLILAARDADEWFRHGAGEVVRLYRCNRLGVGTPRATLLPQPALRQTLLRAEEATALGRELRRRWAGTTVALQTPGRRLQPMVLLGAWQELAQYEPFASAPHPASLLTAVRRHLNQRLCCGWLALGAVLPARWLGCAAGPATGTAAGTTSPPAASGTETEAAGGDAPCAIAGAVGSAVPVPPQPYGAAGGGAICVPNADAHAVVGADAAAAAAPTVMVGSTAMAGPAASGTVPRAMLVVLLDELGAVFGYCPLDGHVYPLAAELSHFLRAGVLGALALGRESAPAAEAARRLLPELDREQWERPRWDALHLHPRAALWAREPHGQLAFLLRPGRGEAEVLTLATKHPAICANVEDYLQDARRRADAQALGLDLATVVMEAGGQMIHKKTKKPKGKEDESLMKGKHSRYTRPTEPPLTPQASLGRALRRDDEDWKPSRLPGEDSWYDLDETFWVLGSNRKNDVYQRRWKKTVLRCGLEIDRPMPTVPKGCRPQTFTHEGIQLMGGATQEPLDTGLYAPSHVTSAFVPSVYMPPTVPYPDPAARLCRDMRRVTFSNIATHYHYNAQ
UniProt P08318: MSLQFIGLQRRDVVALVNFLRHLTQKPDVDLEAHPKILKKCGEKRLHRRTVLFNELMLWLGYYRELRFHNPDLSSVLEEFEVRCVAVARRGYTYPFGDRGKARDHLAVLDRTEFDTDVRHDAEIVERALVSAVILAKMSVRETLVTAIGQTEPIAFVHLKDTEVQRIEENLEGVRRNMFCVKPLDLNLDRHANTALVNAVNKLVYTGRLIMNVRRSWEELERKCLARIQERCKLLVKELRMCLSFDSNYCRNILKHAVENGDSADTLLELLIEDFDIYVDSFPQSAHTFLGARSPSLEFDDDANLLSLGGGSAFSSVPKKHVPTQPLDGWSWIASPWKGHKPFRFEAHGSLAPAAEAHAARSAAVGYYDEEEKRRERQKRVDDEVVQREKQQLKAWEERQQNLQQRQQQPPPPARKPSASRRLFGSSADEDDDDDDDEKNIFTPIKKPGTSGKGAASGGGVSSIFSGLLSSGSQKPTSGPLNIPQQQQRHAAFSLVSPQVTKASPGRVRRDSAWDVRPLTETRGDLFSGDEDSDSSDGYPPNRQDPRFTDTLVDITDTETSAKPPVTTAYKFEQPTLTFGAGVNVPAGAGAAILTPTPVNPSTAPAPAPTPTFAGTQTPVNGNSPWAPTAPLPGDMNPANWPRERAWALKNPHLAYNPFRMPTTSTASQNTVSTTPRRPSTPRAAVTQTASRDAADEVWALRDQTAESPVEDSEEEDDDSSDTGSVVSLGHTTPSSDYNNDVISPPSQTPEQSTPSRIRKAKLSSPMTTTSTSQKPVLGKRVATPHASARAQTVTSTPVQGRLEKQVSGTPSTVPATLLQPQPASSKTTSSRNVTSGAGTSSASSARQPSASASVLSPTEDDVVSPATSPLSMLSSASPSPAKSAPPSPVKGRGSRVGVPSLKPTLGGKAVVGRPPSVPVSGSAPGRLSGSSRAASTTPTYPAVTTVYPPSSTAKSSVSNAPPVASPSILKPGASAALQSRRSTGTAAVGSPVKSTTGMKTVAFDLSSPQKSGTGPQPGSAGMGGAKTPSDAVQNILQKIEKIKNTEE
UniProt Q9Y4I1: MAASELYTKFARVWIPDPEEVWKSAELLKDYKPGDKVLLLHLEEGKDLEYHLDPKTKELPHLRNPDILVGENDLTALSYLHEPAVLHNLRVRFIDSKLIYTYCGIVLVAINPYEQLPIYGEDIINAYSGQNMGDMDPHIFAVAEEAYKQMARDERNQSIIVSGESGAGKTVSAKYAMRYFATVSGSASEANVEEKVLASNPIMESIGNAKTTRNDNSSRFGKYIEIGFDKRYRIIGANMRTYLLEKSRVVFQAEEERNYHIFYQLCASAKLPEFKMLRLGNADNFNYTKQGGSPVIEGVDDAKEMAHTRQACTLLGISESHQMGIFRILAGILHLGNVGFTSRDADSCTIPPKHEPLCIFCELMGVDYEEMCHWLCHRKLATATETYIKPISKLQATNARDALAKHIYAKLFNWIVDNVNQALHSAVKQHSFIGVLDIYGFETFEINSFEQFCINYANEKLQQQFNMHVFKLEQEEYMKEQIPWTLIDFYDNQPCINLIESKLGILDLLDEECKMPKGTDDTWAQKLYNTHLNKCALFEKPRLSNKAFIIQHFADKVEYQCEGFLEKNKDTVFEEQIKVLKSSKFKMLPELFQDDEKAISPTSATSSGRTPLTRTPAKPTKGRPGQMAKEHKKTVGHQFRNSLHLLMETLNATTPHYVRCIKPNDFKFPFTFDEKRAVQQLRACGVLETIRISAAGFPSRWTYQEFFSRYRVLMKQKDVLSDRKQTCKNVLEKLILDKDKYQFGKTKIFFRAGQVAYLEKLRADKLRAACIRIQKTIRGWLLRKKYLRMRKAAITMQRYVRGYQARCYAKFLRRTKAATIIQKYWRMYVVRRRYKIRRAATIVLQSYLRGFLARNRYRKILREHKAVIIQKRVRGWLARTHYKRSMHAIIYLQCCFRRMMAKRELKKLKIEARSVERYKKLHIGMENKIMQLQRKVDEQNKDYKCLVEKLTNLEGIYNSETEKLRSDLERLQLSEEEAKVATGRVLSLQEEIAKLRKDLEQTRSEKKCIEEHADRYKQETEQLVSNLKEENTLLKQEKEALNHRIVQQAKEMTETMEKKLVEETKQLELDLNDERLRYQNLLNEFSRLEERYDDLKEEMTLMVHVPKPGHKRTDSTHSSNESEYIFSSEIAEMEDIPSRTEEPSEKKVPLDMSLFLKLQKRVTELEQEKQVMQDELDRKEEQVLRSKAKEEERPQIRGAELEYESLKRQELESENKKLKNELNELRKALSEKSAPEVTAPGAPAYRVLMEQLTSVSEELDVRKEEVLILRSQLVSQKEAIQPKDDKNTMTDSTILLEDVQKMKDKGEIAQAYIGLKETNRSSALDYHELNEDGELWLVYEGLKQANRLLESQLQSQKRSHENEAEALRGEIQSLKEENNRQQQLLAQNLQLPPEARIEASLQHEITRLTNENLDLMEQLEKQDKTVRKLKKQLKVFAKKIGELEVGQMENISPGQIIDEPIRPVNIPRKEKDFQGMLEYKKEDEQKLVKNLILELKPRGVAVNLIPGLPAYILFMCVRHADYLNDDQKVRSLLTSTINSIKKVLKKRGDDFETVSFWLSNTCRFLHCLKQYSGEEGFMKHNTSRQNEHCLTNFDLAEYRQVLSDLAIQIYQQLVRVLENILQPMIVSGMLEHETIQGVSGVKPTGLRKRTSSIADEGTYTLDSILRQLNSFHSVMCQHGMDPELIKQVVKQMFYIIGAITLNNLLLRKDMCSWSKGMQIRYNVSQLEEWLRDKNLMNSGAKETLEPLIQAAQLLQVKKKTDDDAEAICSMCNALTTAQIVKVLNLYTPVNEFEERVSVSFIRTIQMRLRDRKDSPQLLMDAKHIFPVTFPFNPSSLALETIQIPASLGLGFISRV
UniProt P16732: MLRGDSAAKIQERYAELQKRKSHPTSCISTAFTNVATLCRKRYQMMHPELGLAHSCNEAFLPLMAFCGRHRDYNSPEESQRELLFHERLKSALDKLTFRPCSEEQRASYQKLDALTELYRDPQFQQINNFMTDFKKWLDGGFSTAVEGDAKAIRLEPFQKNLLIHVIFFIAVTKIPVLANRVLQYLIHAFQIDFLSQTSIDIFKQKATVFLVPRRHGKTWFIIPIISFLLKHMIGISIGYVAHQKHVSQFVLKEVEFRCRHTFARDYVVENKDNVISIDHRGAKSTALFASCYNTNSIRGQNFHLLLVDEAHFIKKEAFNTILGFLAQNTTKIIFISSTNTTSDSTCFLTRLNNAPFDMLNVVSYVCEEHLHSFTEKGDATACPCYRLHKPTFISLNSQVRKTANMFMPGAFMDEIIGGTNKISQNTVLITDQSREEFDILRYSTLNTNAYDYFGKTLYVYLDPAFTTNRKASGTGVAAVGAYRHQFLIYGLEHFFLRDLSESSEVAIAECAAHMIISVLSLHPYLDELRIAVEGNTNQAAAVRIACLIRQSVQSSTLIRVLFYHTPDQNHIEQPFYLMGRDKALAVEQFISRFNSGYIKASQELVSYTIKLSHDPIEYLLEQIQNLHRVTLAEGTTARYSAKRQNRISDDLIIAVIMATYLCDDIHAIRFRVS

Among the data in PMC8949324 are binding values, retold here.

No constants are given. Whether binding was seen depends on the method and setting. In cells and extracts the contact can be indirect. Here binding means that the protein was enriched with, or labelled near, the bait; the list need not be complete.

This assay addresses FLAG-tagged UL53 expressed from 53-F HCMV (AD169-RV encoding a FLAG-tagged version of UL53) (human cytomegalovirus (HCMV), strain AD169) (UniProt P16794). Briefly: affinity purification with mass spectrometry.
As for TRS1 (from UniProt P09695 1-788), the binding entry is listed as “binds”. To “inner tegument protein UL32 (pp150) (from UniProt P08318 1-1048)” belongs “binds”; to myosin Va (from UniProt Q9Y4I1 1-1855), “binds”.

For the molecule “terminase subunit UL89 (from UniProt P16732 1-674)”, the binding result was “binds”. Consider B1, for which the binding result was “binds”. To B2 belongs “binds”.
